# Laboratory results taken from ChEMBL document CHEMBL4024804 (J Med Chem, 2018).
# Experiments:
# Type in all cases: functional, cell-based
# DU-145 = experiment: Cytotoxicity against human DU145 cells after 72 hrs by MTS assay; details: DU-145, 72 h
# How it was run: (§1)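 Prostate lines grown in RPMI 1640 with 10% FBS. […] Cells treated 72 h at 10 concentrations, 0.03 nM–1 μM, n = 4. MTS read at 490 nm; IC50 by nonlinear regression. RI = resistant IC50 / parental IC50.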
# [1] = Cytotoxicity against human PC3-TxR cells after 72 hrs by MTS assay; how it was run: as §1
# PC-3 = experiment: Cytotoxicity against human PC3 cells after 72 hrs by MTS assay; details: PC-3, 72 h; how it was run: as §1
smiles,measurement,setting,value
COc1cc2c(c(OC)c1OC)-c1ccc(OC)c(=O)cc1[C@@H](NC(C)=O)CC2 [COLCHICINE],IC50,DU-145,25.7 nM
same,IC50,[1],28.1 nM
same,IC50,PC-3,8 nM
